PubChem BioAssay AID504784 | Drosophila RNAi Screening Center – 2011
Purpose: 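Genome-wide knock-down for genes giving too much or too little stored lipid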 (primary screen). Cell system: Drosophila Kc167 embryonic cells. Knock-down reagent: long dsRNA against Drosophila genes, about 250 ng dsRNA per well. Timing: 4 days. Challenge: cells fed 400 µM oleic acid bound to BSA. Measured: 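Cells imaged and segmented; ratio of lipid droplet area to nuclear area, log-transformed, then normalised as a B-score over the screen; higher means more stored lipid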. Scale: droplet/nuclear area B-score: higher = more stored lipid (overstorage).
In all, the deposit lists about 17,000 reagents; below is an unselected part of those that have a named target and a result. 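Each column is one replicate's B-score; the combined score over replicates was not deposited, so single values may mislead.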 Reagents against one gene are numbered here. A plus sign joins genes that one reagent is predicted to hit. No sequences are given here.

target,dsRNA no.,"droplet/nuclear area B-score, replicate 1","droplet/nuclear area B-score, replicate 2","droplet/nuclear area B-score, replicate 3"
TwdlV (TweedleV),1,-0.517,0.69,
Obp56a (Odorant-binding protein 56a),1,-0.767,-0.183,
Psi (P-element somatic inhibitor),1,-0.958,-0.751,
CG31556 (retired record),1,-0.198,-0.303,
CG31556 (retired record),2,1.42,0.316,
spidey,1,0.886,-0.111,
CG5612,1,-0.204,,
Osi20 (Osiris 20),1,-0.296,-0.686,
Cyp6a19 (Cytochrome P450 6a19),1,-0.00516,-1.15,
pasi2 (pasiflora 2),1,-0.522,-1.35,
CG7860,1,0.447,1.06,1.11
BCL7-like,1,-0.234,1.04,0.0316
CG31522,1,0.454,0.339,
modSP (modular serine protease),1,-1.35,0.0327,
modSP (modular serine protease),2,0.16,-0.715,
modSP (modular serine protease),3,0.404,0.317,
CG31957,1,-0.819,-1.28,
Lip1 (Lipase 1),1,0.457,1.92,
Obp83b (Odorant-binding protein 83b),1,-0.249,-0.685,
THG (tRNA-histidine guanylyltransferase),1,-1.39,-1.97,
Ir25a (Ionotropic receptor 25a),1,0.832,-0.0368,
csul (capsuleen),1,-0.1,0.731,
MRG15 (MORF-related gene 15),1,0.322,-4.46,
CG46339,1,-0.461,-0.688,
CG10098,1,1.78,-3.2,
fon (fondue),1,0.367,-1.88,
CG8563,1,-0.48,1.33,
VhaM9.7-d (Vacuolar H[+] ATPase M9.7 subunit d),1,-0.904,0.211,
CG6843,1,1.3,0.04,
Coq2 (Coenzyme Q biosynthesis protein 2),1,0.158,-0.905,
Coq2 (Coenzyme Q biosynthesis protein 2),2,0.771,-1.5,
cola + swif,1,0.00267,-0.669,
cola + swif,2,-1.07,-1.39,
Nfs1 (Nfs1 cysteine desulfurase),1,0.168,-0.0267,
Lpin (Lipin),1,-0.012,-1.26,
CG12983,1,0.678,-1.06,
Pfdn1 (Prefoldin 1),1,-0.275,-1.23,
CG13919,1,1.25,-3.58,
CG6034,1,-0.000143,-0.795,
prage,1,-0.0169,-0.0429,
prage,2,-0.497,-1.37,
prage,3,0.142,-0.0829,
prage,4,1.42,0.0179,
Rcd6 (Reduction in Cnn dots 6),1,1.79,0.318,
RluA-2 (RluA pseudouridine synthase 2),1,-0.823,-0.403,
ND-PDSW (NADH dehydrogenase (ubiquinone) PDSW subunit),1,2.1,0.117,
"beta4GalNAcTB (beta1,4-N-acetylgalactosaminyltransferase B)",1,-0.375,-0.592,
Or85b (Odorant receptor 85b),1,-0.505,0.447,
CG7102,1,-0.0297,-0.993,
CG7102,2,1.63,-0.015,
CG31659,1,-0.128,1.62,
CG13836 (retired record),1,-1.34,-1.83,
CG31897,1,0.282,-1.3,
CG5013,1,-1.18,0.865,
udt (undicht),1,-2.09,-0.683,
wor (worniu),1,-0.965,-0.482,
Or9a (Odorant receptor 9a),1,-0.677,0.858,-1.13
CG31848,1,2.21,0.877,
EMC10 (ER membrane protein complex subunit 10),1,0.329,0.585,
CG11374,1,-1.36,-1.57,
CG14810,1,,-0.113,
CG14810,2,0.662,0.21,
ClC-b (Chloride channel-b),1,4,0.598,
CG30428,1,-0.88,0.664,
TwdlK (TweedleK),1,1.18,-0.48,
"AGBE (1,4-Alpha-Glucan Branching Enzyme)",1,-0.789,,
Pk34A (Protein kinase at 34A),1,-0.989,0.29,
CG3918,1,-2.26,-2.95,0.324
CG3918,2,0.244,0.15,
CG31368,1,0.731,0.436,
CG31368,2,0.197,0.444,
CG6254,1,-0.246,-0.731,
CG32132 (retired record),1,-5.3,1.12,
CG32132 (retired record),2,1.17,-0.188,
CG32176,1,-0.872,-1.28,
CG32176,2,0.968,2.89,
pre-mod(mdg4)-W + pre-mod(mdg4)-Y + mod(mdg4) + 3 more,1,1.49,0.173,
Shark (SH2 ankyrin repeat kinase),1,-4.29,3.19,
Mef2 (Myocyte enhancer factor 2),1,0.0221,0.264,
Sprn (Spermitin),1,0.603,-0.0838,
CG42675,1,-0.0766,-0.00318,
CG42675,2,4.06,3.2,
CG33177,1,0.257,-0.0113,

4 neighbouring entries from above, quoted:
target,dsRNA no.,"droplet/nuclear area B-score, replicate 1","droplet/nuclear area B-score, replicate 2","droplet/nuclear area B-score, replicate 3"
TwdlV (TweedleV),1,-0.517,0.69,
Obp56a (Odorant-binding protein 56a),1,-0.767,-0.183,
Psi (P-element somatic inhibitor),1,-0.958,-0.751,
CG31556 (retired record),1,-0.198,-0.303,
